Paper PMC5403948, “Eutirucallin: A Lectin with Antitumor and Antimicrobial Properties” (Frontiers in Cellular and Infection Microbiology, 2017)
Values after ≈ are worked out from the molar mass of the structure shown. Like-named read-outs stand apart in the source and are kept apart here.

System: T1, Eutirucallin
T1 construct: gene galactose-binding lectin
Details: minimum inhibitory concentration, 2% Balb/c mouse erythrocytes, room temperature

Row | Structure (SMILES) | MIC | MIC (also eluted from D-galactose-agarose)
1 | OC[C@H]1O[C@@H](O[C@H]2[C@H](O)[C@@H](O)[C@@H](O)O[C@@H]2CO)[C@H](O)[C@@H](O)[C@H]1O [α-lactose] | 25 mM (≈ 8560 µg/mL) | 
2 | OC[C@H]1OC(O)[C@H](O)[C@@H](O)[C@H]1O (stereo partly drawn) [d(+)-galactose] |  | 1.56 mM (≈ 281 µg/mL)
